PubChem BioAssay AID504784 | Drosophila RNAi Screening Center, 2011

Aim: 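Search for regulators of lipid droplet storage in oleate-fed fly cells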 (primary screen)
Cell system: Drosophila Kc167 embryonic cells
Reagents: long dsRNA against Drosophila genes, about 250 ng dsRNA per well
Time to read-out: 4 days
Challenge: cells fed 400 µM oleic acid bound to BSA
Measurement: 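Cells imaged and segmented; ratio of lipid droplet area to nuclear area, log-transformed, then normalised as a B-score over the screen; higher means more stored lipid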
Scale: droplet/nuclear area B-score: higher = more stored lipid (overstorage)
In all, the deposit lists about 17,000 reagents; this is an unselected part of those with a known target gene and a result. 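Each column is one replicate's B-score; the combined score over replicates was not deposited, so single values may mislead.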 Not all columns of the deposit are shown. No sequences are given here.

How did the screen score CG17726?
droplet/nuclear area B-score, replicate 1: 0.439

How did the screen score Atg14?
droplet/nuclear area B-score, replicate 1: -0.385

For CG15024, what was measured?
droplet/nuclear area B-score, replicate 1: 0.0098

For CG34282, what was measured?
droplet/nuclear area B-score, replicate 1: 0.982

For mip130, how do the results read?
droplet/nuclear area B-score, replicate 1: -1.61

What is on record for Arf6?
droplet/nuclear area B-score, replicate 1: -0.21

With rtp, what does the deposit list?
droplet/nuclear area B-score, replicate 1: 2.31

For RpS6, what was measured?
droplet/nuclear area B-score, replicate 1: 4.45

For CG5910, what was measured?
droplet/nuclear area B-score, replicate 1: -0.0483

2 entries from above, ordered by “droplet/nuclear area B-score, replicate 1”, ascending.
Arf6 | droplet/nuclear area B-score, replicate 1 = -0.21
rtp | droplet/nuclear area B-score, replicate 1 = 2.31

Further records:
Which result is listed for CG2150?
droplet/nuclear area B-score, replicate 1: -0.249

What did the screen give for CG7634?
droplet/nuclear area B-score, replicate 1: -0.21

With mthl2, what was measured?
droplet/nuclear area B-score, replicate 1: 0.0118

What is on record for CG7924?
droplet/nuclear area B-score, replicate 1: 1.69

How did the screen score Sumo?
droplet/nuclear area B-score, replicate 1: 4.33

With SMC3, how do the results read?
droplet/nuclear area B-score, replicate 1: 0.00481

Which result is listed for PICK1?
droplet/nuclear area B-score, replicate 1: -0.272
